Some results were stated once for a whole list of compounds, not compound by compound.
Legend:
Assay in all cases: Pre-emergence herbicidal action against harmful plants
Type in all cases: in vivo
Conditions in all cases: 320 grams per hectare, scored visually after 3 to 4 weeks in greenhouse
Polygonum convolvulus = system: Polygonum convolvulus
Veronica persica = system: Veronica persica
Lolium multiflorum = system: Lolium multiflorum
Alopecurus myosuroides = system: Alopecurus myosuroides

CC(C)NC(=O)C1(C)CC(c2cncc(Cl)c2)=NO1 (stereo not shown) [2.8, 3-(5-chloropyridin-3-yl)-N-isopropyl-5-methyl-4,5-dihydro-1,2-oxazole-5-carboxamide]
at least 80%: efficacy against Polygonum convolvulus (Polygonum convolvulus) | efficacy against Veronica persica (Veronica persica) | efficacy against Lolium multiflorum (Lolium multiflorum) | efficacy against Alopecurus myosuroides (Alopecurus myosuroides)

From patent US10104892B2, “Herbicidally and fungicidally active 3-heteroaryl-isoxazoline-5-carboxamides and 3-heteroaryl-isoxazoline-5-thioamides” (BAYER CROPSCIENCE AG, priority 2012, dated 2018)
